Assay results taken from the supplement of paper PMC12067093, “Discovery and optimisation of a covalent ligand for TRIM25 and its application to targeted protein ubiquitination” (Chemical Science, 2025).
The list shows a part of the results.

Compound: Cc1cc(ccc1-c1ccccc1)C(=O)N1CCCN(CC1)C(=O)CCl [compound 10]
Assay: probe-labelled cysteine peptide fold change vs DMSO (competition) (log2 fold change); higher = less target engagement (more negative = stronger competition)
Settings: THP-1, incubation time: 4 h
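Further: competitive profiling in live THP-1 cells: cysteine peptides tagged with an iodoacetamide desthiobiotin (IA-DTB) probe, intensity after compound treatment relative to DMSO-treated cells.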

Target	probe-labelled cysteine peptide fold change (10 µM)	probe-labelled cysteine peptide fold change (50 µM)
CHPF_Q8IZ52_243_YCHGGFGVLLSR (UniProt Q8IZ52)	-0.176	0.255
CHD1_O14646_497_DYQLNGLNWLAHSWCK (UniProt O14646)	0.00729	0.0426
CIP2A_Q8TCG1_472_VADSELCK (UniProt Q8TCG1)	0.274	-0.0813
CHD7_Q9P2D1_1101_CVVIDEAHR (UniProt Q9P2D1)	-0.0182	0.161
CHCHD3_Q9NX63_204_CSALATQYMHCVNHAK (UniProt Q9NX63)	-0.212	-0.0823
CHERP_Q8IWX8_246_VVVPIYCTSFLAVEEDK (UniProt Q8IWX8)	0.0369	0.0109
CHKB_Q9Y259_28_CPDTTPK (UniProt Q9Y259)	-0.308	-0.309
CIAPIN1_Q6FI81_92_ILRPGGCLFLK (UniProt Q6FI81)	-0.0886	-0.145
CIAO1_O76071_34_CWFLAWNPAGTLLASCGGDRR (UniProt O76071)	-0.326	-0.453
CHD1L_Q86WJ1_156_FHVLLTTYEICLK (UniProt Q86WJ1)	0.0398	0.295
CISD3_P0C7P0_100_MVALCTCK (UniProt P0C7P0)	0.0463	-0.0222
CHAMP1_Q96JM3_16_LECDHCSFR (UniProt Q96JM3)	0.32	0.288
CKAP5_Q14008_637_TEMPCQALVR (UniProt Q14008)	-0.0329	0.0705
CHAMP1_Q96JM3_770_CNFESNFPR (UniProt Q96JM3)	0.0281	-0.498
CLIP2_Q9UDT6_272_YFQCPPK (UniProt Q9UDT6)	-0.000605	0.0735
CLTCL1_P53675_617_AHIAQLCEK (UniProt P53675)	-0.0386	0.02
CIP2A_Q8TCG1_6_MDSTACLK (UniProt Q8TCG1)	-0.0871	-0.884
CIAO1_O76071_271_TIYDIAWCQLTGALATACGDDAIR (UniProt O76071)	0.287	0.223
CLTCL1_P53675_459_LECSEELGDLVK (UniProt P53675)	0.0211	0.516
CHURC1_Q8WUH1_88_EEDGEEIVTYDHLCK (UniProt Q8WUH1)	-0.029	0.282
CLTC_Q00610_1257_EVCFACVDGK (UniProt Q00610)	-0.0958	0.161
CHORDC1_Q9UHD1_59_RTTDFSDFLSIVGCTK (UniProt Q9UHD1)	-0.167	-0.292

Target	probe-labelled cysteine peptide fold change (10 µM)	probe-labelled cysteine peptide fold change (50 µM)
CHD8_Q9HCK8_1902_EQVLCHPLLEDR (UniProt Q9HCK8)	-0.0868	0.274
CLASP2_O75122_157_EACITVAHLSTVLGNK (UniProt O75122)	0.29	0.404
CHD1_O14646_1176_LGELVHNGCIK (UniProt O14646)	-0.0528	0.00367
CKAP5_Q14008_1019_STPTDLILCVPHLYSCLEDR (UniProt Q14008)	-0.0401	0.165
CMAS_Q8NFW8_422_EFAEHICLLMEK (UniProt Q8NFW8)	-0.0896	-0.0383
CLTC_Q00610_39_FQEHLQLQNLGINPANIGFSTLTMESDKFICIR (UniProt Q00610)	-0.282	-0.594
CIAPIN1_Q6FI81_285_CASCPYLGMPAFKPGEK (UniProt Q6FI81)	-0.0926	-0.626
CIT_O14578_1688_GCHLFGAGK (UniProt O14578)	-0.0614	-0.119
CIAPIN1_Q6FI81_116_LCSALTLSGLVEVK (UniProt Q6FI81)	-0.0551	-0.198
CHD4_Q14839_1468_HLCEPGADGAETFADGVPR (UniProt Q14839)	-0.0123	0.148
CIP2A_Q8TCG1_752_DLQITCDSLNK (UniProt Q8TCG1)	0.0426	-0.0635
CLTC_Q00610_436_YESLELCR (UniProt Q00610)	0.0128	0.398
CLP1_Q92989_71_VAVFTWHGCSVQLSGR (UniProt Q92989)	-0.0212	0.0811
CHD1_O14646_502_GNSCILADEMGLGK (UniProt O14646)	0.109	0.134
CHST14_Q8NCH0_117_AVCGQPGMPR (UniProt Q8NCH0)	0.00457	0.118
CHM_P24386_444_IISEHFLVEDSYFPENMCSR (UniProt P24386)	0.0119	-0.076
CHAF1A_Q13111_79_SPDLEASLDTLENNCHVGSDIDFRPK (UniProt Q13111)	-0.25	-0.331
CKAP5_Q14008_1795_NESELEAHLCR (UniProt Q14008)	-0.122	0.228
CKAP5_Q14008_1026_STPTDLILCVPHLYSCLEDR (UniProt Q14008)	0.144	-0.0942
CHKB_Q9Y259_85_CSLPDHLPSVGEEPREVLLR (UniProt Q9Y259)	0.0237	0.406
CLIC4_Q9Y696_189_FLDGNEMTLADCNLLPK (UniProt Q9Y696)	-0.0734	-0.181
CLASP1_Q7Z460_1423_AAEEAASTLASSIHPEQCIK (UniProt Q7Z460)	0.0352	0.0833

Target	probe-labelled cysteine peptide fold change (10 µM)	probe-labelled cysteine peptide fold change (50 µM)
CIT_O14578_105_SLVGCGHFAEVQVVR (UniProt O14578)	0.00678	-0.0443
CLCC1_Q96S66_60_DVSPDLSCADEISECYHK (UniProt Q96S66)	-0.244	0.0652
CHCHD3_Q9NX63_204+214_CSALATQYMHCVNHAK (UniProt Q9NX63)	-0.255	-0.00818
CGAS_Q8N884_446_TAFFHVCTQNPQDSQWDRK (UniProt Q8N884)	-0.0481	0.066
CLIC1_O00299_89_IEEFLEAVLCPPRYPK (UniProt O00299)	0.24	0.312
CHM_P24386_364_NFLHCLGR (UniProt P24386)	0.0386	0.278
CLASP2_O75122_976_KDDGDSMCGGPGMSDPR (UniProt O75122)	-0.321	-0.453
CHCHD7_Q9BUK0_16_LRDPDINPCLSESDASTR (UniProt Q9BUK0)	-0.273	0.029
CLTCL1_P53675_778_LTDQLPLIIVCDR (UniProt P53675)	0.174	0.821
CLPB_Q9H078_446_QCPNAVVLFDEVDK (UniProt Q9H078)	-0.263	0.128
CIT_O14578_1392_CLECQVMCHPK (UniProt O14578)	0.254	0.0669
CHFR_Q96EP1_95_KQTCPLQTGDVIYLVYR (UniProt Q96EP1)	-0.0947	-0.633
CHD4_Q14839_1594_STAPETAIECTQAPAPASEDEK (UniProt Q14839)	0.0259	-0.219
CHKB_Q9Y259_85_CSLPDHLPSVGEEPR (UniProt Q9Y259)	0.146	0.245
CLIC1_O00299_24_IGNCPFSQR (UniProt O00299)	-0.71	-0.744
CMC1_Q7Z7K0_31_CSEQVQDFTK (UniProt Q7Z7K0)	-0.448	-0.108
CLEC11A_Q9Y240_319_LYYVCEFPF (UniProt Q9Y240)	-0.333	-0.19
CHD8_Q9HCK8_2300_LVELEVECMEEPNHLDVDLETR (UniProt Q9HCK8)	-0.286	-0.239
CIZ1_Q9ULV3_631_LGEIQHMSQACLLSLLPVPR (UniProt Q9ULV3)	0.16	-0.196
CIT_O14578_1655_ALCLVDVK (UniProt O14578)	0.383	0.309
CLTC_Q00610_753_ESNCYDPER (UniProt Q00610)	-0.0895	-0.0135
CLNS1A_P54105_73_DRSDCLGEHLYVMVNAK (UniProt P54105)	-0.0404	-0.327

Reformatted in markdown: entries from further up

| Target | probe-labelled cysteine peptide fold change (10 µM) | probe-labelled cysteine peptide fold change (50 µM) |
| --- | --- | --- |
| CKAP5_Q14008_1795_NESELEAHLCR (UniProt Q14008) | -0.122 | 0.228 |
| CKAP5_Q14008_1026_STPTDLILCVPHLYSCLEDR (UniProt Q14008) | 0.144 | -0.0942 |
| CHKB_Q9Y259_85_CSLPDHLPSVGEEPREVLLR (UniProt Q9Y259) | 0.0237 | 0.406 |
| CLIC4_Q9Y696_189_FLDGNEMTLADCNLLPK (UniProt Q9Y696) | -0.0734 | -0.181 |
| CLASP1_Q7Z460_1423_AAEEAASTLASSIHPEQCIK (UniProt Q7Z460) | 0.0352 | 0.0833 |
| CIT_O14578_105_SLVGCGHFAEVQVVR (UniProt O14578) | 0.00678 | -0.0443 |
| CLCC1_Q96S66_60_DVSPDLSCADEISECYHK (UniProt Q96S66) | -0.244 | 0.0652 |
| CHCHD3_Q9NX63_204+214_CSALATQYMHCVNHAK (UniProt Q9NX63) | -0.255 | -0.00818 |
| CGAS_Q8N884_446_TAFFHVCTQNPQDSQWDRK (UniProt Q8N884) | -0.0481 | 0.066 |
| CLIC1_O00299_89_IEEFLEAVLCPPRYPK (UniProt O00299) | 0.24 | 0.312 |
| CHM_P24386_364_NFLHCLGR (UniProt P24386) | 0.0386 | 0.278 |
| CLASP2_O75122_976_KDDGDSMCGGPGMSDPR (UniProt O75122) | -0.321 | -0.453 |
| CHCHD7_Q9BUK0_16_LRDPDINPCLSESDASTR (UniProt Q9BUK0) | -0.273 | 0.029 |
| CLTCL1_P53675_778_LTDQLPLIIVCDR (UniProt P53675) | 0.174 | 0.821 |
| CLPB_Q9H078_446_QCPNAVVLFDEVDK (UniProt Q9H078) | -0.263 | 0.128 |
| CIT_O14578_1392_CLECQVMCHPK (UniProt O14578) | 0.254 | 0.0669 |
| CHFR_Q96EP1_95_KQTCPLQTGDVIYLVYR (UniProt Q96EP1) | -0.0947 | -0.633 |
| CHD4_Q14839_1594_STAPETAIECTQAPAPASEDEK (UniProt Q14839) | 0.0259 | -0.219 |
| CHKB_Q9Y259_85_CSLPDHLPSVGEEPR (UniProt Q9Y259) | 0.146 | 0.245 |
| CLIC1_O00299_24_IGNCPFSQR (UniProt O00299) | -0.71 | -0.744 |
| CMC1_Q7Z7K0_31_CSEQVQDFTK (UniProt Q7Z7K0) | -0.448 | -0.108 |
| CLEC11A_Q9Y240_319_LYYVCEFPF (UniProt Q9Y240) | -0.333 | -0.19 |
| CHD8_Q9HCK8_2300_LVELEVECMEEPNHLDVDLETR (UniProt Q9HCK8) | -0.286 | -0.239 |
| CIZ1_Q9ULV3_631_LGEIQHMSQACLLSLLPVPR (UniProt Q9ULV3) | 0.16 | -0.196 |
| CIT_O14578_1655_ALCLVDVK (UniProt O14578) | 0.383 | 0.309 |
| CLTC_Q00610_753_ESNCYDPER (UniProt Q00610) | -0.0895 | -0.0135 |
| CLNS1A_P54105_73_DRSDCLGEHLYVMVNAK (UniProt P54105) | -0.0404 | -0.327 |

Additional entries:

Target	probe-labelled cysteine peptide fold change (10 µM)	probe-labelled cysteine peptide fold change (50 µM)
CIAPIN1_Q6FI81_288_CASCPYLGMPAFKPGEK (UniProt Q6FI81)	0.0106	-0.654
CLEC16A_Q2KHT3_566_LATLELSCLLLK (UniProt Q2KHT3)	0.269	0.318
CHD9_Q3L8U1_1375_FCEEDIDQILLR (UniProt Q3L8U1)	0.149	0.222
CHST11_Q9NPF2_89_RDQVTDTCR (UniProt Q9NPF2)	-0.188	-0.00933
CLTC_Q00610_491_VIQCFAETGQVQK (UniProt Q00610)	-0.00321	0.2
CHORDC1_Q9UHD1_211_KTSDFNTFLAQEGCTK (UniProt Q9UHD1)	0.0992	-0.299
CINP_Q9BW66_81_VCLEYNEELEK (UniProt Q9BW66)	-0.136	-0.189
CLTC_Q00610_217_MEGNAEESTLFCFAVR (UniProt Q00610)	0.184	0.156
CHD2_O14647_500_DYQLEGLNWLAHSWCK (UniProt O14647)	0.186	0.216
CLASP1_Q7Z460_453_LIPVITSNCTSK (UniProt Q7Z460)	-0.108	0.0962
CMPK2_Q5EBM0_226_AVLEECTSFIPEAR (UniProt Q5EBM0)	-0.133	-0.0982
CMAS_Q8NFW8_405_AVGYICK (UniProt Q8NFW8)	0.0477	-0.099
CLSPN_Q9HAW4_397_ETQIITGSDESCR (UniProt Q9HAW4)	-0.241	0.0264
CLIC4_Q9Y696_234_DEFTNTCPSDK (UniProt Q9Y696)	-0.177	0.0243
CHEK2_O96017_108_LWALQDGFANLECVNDNYWFGR (UniProt O96017)	0.059	0.0448
CIAO2A_Q9H5X1_155_EIVEQCVLEPD (UniProt Q9H5X1)	-0.43	-0.0552
CHCHD3_Q9NX63_112_ERICSEEER (UniProt Q9NX63)	-0.207	-0.458
CFL1_P23528_147_DRCTLAEK (UniProt P23528)	-0.108	0.0839
CIAPIN1_Q6FI81_274_SACGNCYLGDAFR (UniProt Q6FI81)	-0.147	-0.606
CGGBP1_Q9UFW8_43+46_LFCTSCNVVLNHVR (UniProt Q9UFW8)	0.208	0.185
CHURC1_Q8WUH1_44+60_GNTCLENGSFLLNFTGCAVCSK (UniProt Q8WUH1)	0.251	0.227
